{
  "sequences": {"note": "By UniProt entry, the sequences of proteins in these tests, tags left out. Where a name states a change or a piece, a line headed by the entry shows the natural chain unless it says otherwise. Chains listed by the source or under a name are the forms on record and can include a tag or linker.", "UniProt P10070": "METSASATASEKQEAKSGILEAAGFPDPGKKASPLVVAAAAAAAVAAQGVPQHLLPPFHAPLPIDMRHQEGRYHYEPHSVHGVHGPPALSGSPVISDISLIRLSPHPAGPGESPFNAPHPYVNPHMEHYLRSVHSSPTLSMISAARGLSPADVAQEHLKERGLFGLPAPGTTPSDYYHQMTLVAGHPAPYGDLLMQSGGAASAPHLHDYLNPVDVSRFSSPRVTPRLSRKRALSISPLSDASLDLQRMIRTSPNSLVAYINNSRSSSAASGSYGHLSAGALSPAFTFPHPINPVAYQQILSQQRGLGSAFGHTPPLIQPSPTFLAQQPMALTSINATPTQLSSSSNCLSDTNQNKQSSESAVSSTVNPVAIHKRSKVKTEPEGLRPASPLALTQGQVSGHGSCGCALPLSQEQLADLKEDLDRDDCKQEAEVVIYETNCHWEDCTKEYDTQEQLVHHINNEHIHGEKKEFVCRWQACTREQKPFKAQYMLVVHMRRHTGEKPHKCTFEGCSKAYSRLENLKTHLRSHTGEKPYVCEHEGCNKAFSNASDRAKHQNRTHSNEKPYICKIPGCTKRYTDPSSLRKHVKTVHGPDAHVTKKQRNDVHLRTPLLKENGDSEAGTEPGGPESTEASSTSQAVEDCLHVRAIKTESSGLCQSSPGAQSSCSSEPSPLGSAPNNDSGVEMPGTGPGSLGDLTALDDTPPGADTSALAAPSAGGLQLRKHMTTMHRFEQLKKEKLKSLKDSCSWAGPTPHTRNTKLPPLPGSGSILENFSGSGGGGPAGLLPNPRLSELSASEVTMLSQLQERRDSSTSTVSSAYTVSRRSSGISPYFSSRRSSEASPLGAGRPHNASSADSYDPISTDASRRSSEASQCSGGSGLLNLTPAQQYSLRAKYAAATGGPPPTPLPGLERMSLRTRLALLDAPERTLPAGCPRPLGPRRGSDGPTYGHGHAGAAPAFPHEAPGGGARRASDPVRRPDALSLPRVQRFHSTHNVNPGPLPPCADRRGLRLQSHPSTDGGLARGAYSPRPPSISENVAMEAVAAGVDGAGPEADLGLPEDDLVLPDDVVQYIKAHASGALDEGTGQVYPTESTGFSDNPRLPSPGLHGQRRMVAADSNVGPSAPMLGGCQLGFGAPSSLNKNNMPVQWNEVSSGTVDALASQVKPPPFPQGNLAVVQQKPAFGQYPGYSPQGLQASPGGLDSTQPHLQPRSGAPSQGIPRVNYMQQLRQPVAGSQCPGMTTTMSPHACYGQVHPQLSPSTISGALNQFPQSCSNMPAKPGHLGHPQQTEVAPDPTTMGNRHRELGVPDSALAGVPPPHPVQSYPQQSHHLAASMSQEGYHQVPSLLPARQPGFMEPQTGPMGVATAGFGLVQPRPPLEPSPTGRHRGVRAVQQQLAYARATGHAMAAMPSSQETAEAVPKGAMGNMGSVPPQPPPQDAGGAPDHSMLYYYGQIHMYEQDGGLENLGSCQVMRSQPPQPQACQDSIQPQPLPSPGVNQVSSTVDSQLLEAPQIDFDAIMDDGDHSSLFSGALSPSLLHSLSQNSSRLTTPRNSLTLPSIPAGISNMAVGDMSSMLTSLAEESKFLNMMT", "UniProt P45983": "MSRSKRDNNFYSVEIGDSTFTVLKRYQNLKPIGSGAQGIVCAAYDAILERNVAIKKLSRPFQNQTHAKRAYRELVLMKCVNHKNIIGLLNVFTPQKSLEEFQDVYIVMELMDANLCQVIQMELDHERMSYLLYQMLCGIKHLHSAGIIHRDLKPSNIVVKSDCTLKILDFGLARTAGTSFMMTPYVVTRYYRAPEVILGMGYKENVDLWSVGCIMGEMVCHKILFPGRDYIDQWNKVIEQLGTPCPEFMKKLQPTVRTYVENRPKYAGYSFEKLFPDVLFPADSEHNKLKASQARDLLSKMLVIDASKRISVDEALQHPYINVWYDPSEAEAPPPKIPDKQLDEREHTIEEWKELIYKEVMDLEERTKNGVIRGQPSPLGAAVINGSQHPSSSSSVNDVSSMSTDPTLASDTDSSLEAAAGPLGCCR", "Flag-tagged JNK1 (P45983-2, form named)": "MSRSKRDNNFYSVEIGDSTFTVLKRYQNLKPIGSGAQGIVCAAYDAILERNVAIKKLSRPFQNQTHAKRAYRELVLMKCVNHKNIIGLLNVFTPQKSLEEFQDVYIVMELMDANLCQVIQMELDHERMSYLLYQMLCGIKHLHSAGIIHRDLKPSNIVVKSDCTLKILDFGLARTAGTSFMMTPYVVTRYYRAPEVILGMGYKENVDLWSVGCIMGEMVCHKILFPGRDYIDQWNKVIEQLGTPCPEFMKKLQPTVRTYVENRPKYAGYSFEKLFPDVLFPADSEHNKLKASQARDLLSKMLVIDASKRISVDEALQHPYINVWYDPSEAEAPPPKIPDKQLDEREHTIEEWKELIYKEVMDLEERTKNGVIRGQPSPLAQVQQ"},
  "source": "paper PMC8282835",
  "key": {"[1]": {"target": "Myc-tagged Gli2 (UniProt P10070)", "test": "co-IP; 293T cells expressing Flag-tagged JNK1 and Myc-tagged Gli2, treated with PGE2, SP600125 and MG132 as indicated for 1 h; lysis buffer 50 mM Tris pH 8.0, 150 mM NaCl, 10% glycerol, 1 mM EDTA, 50 mM NaF, 0.1% NP-40; antibody overnight at 4 °C, Protein A/G Plus-Agarose; western blot"}, "[2]": {"target": "endogenous Gli2 (human (endogenous in 293T)) (UniProt P10070)", "test": "co-IP; endogenous proteins in 293T cells treated with PGE2, SP600125 and MG132 as indicated for 1 h; lysis buffer 50 mM Tris pH 8.0, 150 mM NaCl, 10% glycerol, 1 mM EDTA, 50 mM NaF, 0.1% NP-40; antibody overnight at 4 °C, Protein A/G Plus-Agarose; western blot"}},
  "note": "No constants are given. Whether binding was seen depends on the method and setting. In cells and extracts the contact can be indirect. Some entries that bind do so weakly or less than the wild type.",
  "data": [
    {"substance": "Flag-tagged JNK1 (from UniProt P45983-2 1-384) (enzyme)", "values": [
      {"measurement": "binding", "setting": "[1]", "result": "binds"}
    ]},
    {"substance": "endogenous JNK1 (from UniProt P45983 1-427) (enzyme)", "values": [
      {"measurement": "binding", "setting": "[2]", "result": "binds"}
    ]}
  ]
}
